PMC4046997
Results are given in words; binding and its absence hold for the method and conditions named. In cells and extracts the contact can be indirect. Some results given as binding are weak or reduced against the parent protein; the word gives no strength.

Sequences of proteins named here, by UniProt entry; tags and fusion partners are left off.
UniProt P31596: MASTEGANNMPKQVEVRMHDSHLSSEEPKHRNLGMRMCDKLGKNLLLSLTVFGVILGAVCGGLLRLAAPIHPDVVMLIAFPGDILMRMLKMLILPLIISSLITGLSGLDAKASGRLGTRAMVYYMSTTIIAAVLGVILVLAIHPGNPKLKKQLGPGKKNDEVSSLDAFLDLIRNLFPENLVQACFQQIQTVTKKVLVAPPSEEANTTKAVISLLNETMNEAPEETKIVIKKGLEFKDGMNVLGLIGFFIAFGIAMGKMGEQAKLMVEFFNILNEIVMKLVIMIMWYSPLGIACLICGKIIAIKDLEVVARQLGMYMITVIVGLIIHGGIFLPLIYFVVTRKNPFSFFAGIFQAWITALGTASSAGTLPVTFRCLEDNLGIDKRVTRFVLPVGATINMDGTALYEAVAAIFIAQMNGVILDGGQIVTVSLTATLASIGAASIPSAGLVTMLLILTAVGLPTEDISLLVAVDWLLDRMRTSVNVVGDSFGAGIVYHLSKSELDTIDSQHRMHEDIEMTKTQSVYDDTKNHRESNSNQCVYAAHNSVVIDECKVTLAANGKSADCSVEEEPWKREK

How the values were obtained:
[1] = target: glutamate transporter GLT-1 (rat (endogenous in adult rat brain)) (UniProt P31596); test: co-IP; adult rat brain lysate (150 mM NaCl, 1 mM EDTA, 100 mM Tris HCl pH 7.4, 1% Triton X-100, 1% Na deoxycholate), 4°C; precipitated with anti-GLAST or anti-GLT-1 antibody and protein-G agarose, rabbit IgG as control; immunoblot for Na,K-ATPase α1 and α2
[2] = target: T1, glutamate/Na+ co-transporter GLAST (rat (endogenous in adult rat brain)) (UniProt P24942); test: as above
T1 sequence: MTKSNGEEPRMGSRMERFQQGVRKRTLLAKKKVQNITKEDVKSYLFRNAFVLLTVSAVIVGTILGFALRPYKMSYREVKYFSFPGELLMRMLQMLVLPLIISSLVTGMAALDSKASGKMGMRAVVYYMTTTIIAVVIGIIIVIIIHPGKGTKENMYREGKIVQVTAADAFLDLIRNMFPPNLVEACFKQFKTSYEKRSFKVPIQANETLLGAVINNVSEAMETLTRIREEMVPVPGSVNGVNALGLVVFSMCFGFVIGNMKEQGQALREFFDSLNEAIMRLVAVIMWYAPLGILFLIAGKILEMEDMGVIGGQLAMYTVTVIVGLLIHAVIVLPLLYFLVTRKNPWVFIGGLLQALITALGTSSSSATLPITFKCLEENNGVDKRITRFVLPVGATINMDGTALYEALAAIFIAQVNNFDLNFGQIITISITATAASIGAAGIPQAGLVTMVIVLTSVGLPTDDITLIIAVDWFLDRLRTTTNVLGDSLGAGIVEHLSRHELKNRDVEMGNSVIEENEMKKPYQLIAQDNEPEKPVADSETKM

binding [1]: binds
binding [2]: binds
Substance: Na,K-ATPase α2 subunit (from UniProt P06686 1-1020)
